Data as given in PubChem BioAssay AID1259307 (Sanger Institute, 2017).
The whole screen tested 794 reagents; shown is a random part of them. Of all reagents, 15 (1.9%) got an active call. 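Calls reflect lethality without any drug; synergy scores did not enter the calls.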 Unmarked entries are inactive. No viability above 1 is reported: the scale is capped. Not all columns of the deposit are shown. Reagent sequences are not shown. The record does not give: the amount of reagent, the time to read-out.

Purpose: 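Identify kinases needed for SW620 growth or enhancing BYL719, cetuximab or trametinib effects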 (primary screen)
System: SW620 colorectal cancer cells
Knock-down reagent: siRNA pool against human genes
Conditions: anchor drugs BYL719 at 1 µM, cetuximab at 5 µg/ml or trametinib at 10 nM, each beside a DMSO vehicle arm
Measurement: 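Cell viability in each well relative to non-targeting controls, averaged over replicates and turned into a robust z-score; synergy with BYL719 (1 µM), cetuximab (5 µg/ml), trametinib (10 nM) versus DMSO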
Direction: viability robust z-score, no drug and viability vs control, no drug: higher = more viable cells
Hit rule: 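a knock-down counts as lethal alone if its drug-free robust viability z-score is lower than -3, regardless of synergy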
Meaning of the calls: active = essential (lethal alone); inactive = no change alone

| gene symbol | viability robust z-score, no drug | viability vs control, no drug |
| --- | --- | --- |
| ITK | 0.736 | 1 |
| TRIB3 | -0.331 | 0.902 |
| MYLK | -0.078 | 0.925 |
| ERBB2 | 0.127 | 0.944 |
| MAP3K9 | -0.0728 | 0.925 |
| CRKL | 0.736 | 1 |
| PRKX | 0.715 | 0.998 |
| PI4K2B | 0.629 | 0.99 |
| ACSL6 | 0.736 | 1 |
| MYLK4 | -0.235 | 0.91 |
| MKNK2 | -1.33 | 0.809 |
| COASY | -0.904 | 0.849 |
| NME1 | 0.294 | 0.959 |
| EIF2AK2 | 0.0383 | 0.936 |
| TRIM27 | -1.51 | 0.793 |
| DYRK1B | -0.497 | 0.886 |
| IRAK4 | 0.736 | 1 |
| MAPK9 | 0.221 | 0.953 |
| CDK3 | 0.651 | 0.992 |
| FOXP1 | -2.78 | 0.675 |
| PRKY | -0.475 | 0.888 |
| PRPS2 | 0.736 | 1 |
| PI4K2A | 0.736 | 1 |
| MAPK7 | 0.736 | 1 |
| CSNK1E | 0.736 | 1 |
| AKT2 | 0.564 | 0.984 |
| SKAP1 | 0.433 | 0.972 |
| PRKAR2A | 0.736 | 1 |
| SMC1A | 0.736 | 1 |
| RIPK4 | 0.0973 | 0.941 |
| DNMT3A | -1.44 | 0.799 |
| DAPK2 | 0.118 | 0.943 |
| PTK6 | 0.197 | 0.95 |
| PKIA | 0.684 | 0.995 |
| CAMKK1 | 0.736 | 1 |
| MAPK12 | 0.736 | 1 |
| BRAF | -0.9 | 0.849 |
| AK1 | 0.353 | 0.965 |
| FXR1 | 0.736 | 1 |
| FGR | -0.683 | 0.869 |
| CIT | -1.54 | 0.79 |
| GUK1 | -0.423 | 0.893 |
| DIS3 | 0.736 | 1 |
| MAPK14 | -0.0793 | 0.925 |
| GRK5 | 0.659 | 0.993 |
| TRIB2 | -0.513 | 0.885 |
| MAP3K6 | -0.19 | 0.915 |
| PAPSS2 | 0.736 | 1 |
| AKT3 | 0.736 | 1 |
| SYNCRIP | -2.39 | 0.712 |

8 entries already listed, arranged by “viability robust z-score, no drug”, descending.
| gene symbol | viability robust z-score, no drug | viability vs control, no drug |
| --- | --- | --- |
| ACSL6 | 0.736 | 1 |
| PRKX | 0.715 | 0.998 |
| PI4K2B | 0.629 | 0.99 |
| NME1 | 0.294 | 0.959 |
| EIF2AK2 | 0.0383 | 0.936 |
| MYLK4 | -0.235 | 0.91 |
| COASY | -0.904 | 0.849 |
| MKNK2 | -1.33 | 0.809 |
